Data published in patent publication US20150361183A1.
No constants are given. Whether binding was seen depends on the method and setting. Some binding calls cover weakened binding; strength is not graded here.

By UniProt entry, the sequences of proteins in these tests, tags left out. Residues count along the entry.
UniProt P01027, residues 955-1303: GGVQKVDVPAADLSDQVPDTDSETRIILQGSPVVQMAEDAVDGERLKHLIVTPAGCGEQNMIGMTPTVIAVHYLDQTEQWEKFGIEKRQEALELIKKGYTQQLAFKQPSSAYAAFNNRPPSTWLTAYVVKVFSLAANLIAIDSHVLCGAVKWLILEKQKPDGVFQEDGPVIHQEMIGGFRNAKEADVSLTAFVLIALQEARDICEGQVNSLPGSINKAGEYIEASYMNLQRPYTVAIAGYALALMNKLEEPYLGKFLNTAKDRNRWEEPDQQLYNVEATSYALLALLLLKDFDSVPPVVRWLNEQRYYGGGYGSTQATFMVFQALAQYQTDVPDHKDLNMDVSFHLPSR

Tests used:
[1] = target: T1, CFHR5 (complement factor H-related protein 5), wild type (human), Q9BXR6; test: sandwich ELISA on serum, anti-CFHR5 capture and anti-CFHR2 detection; details: remark: other sources report otherwise
T1 chain: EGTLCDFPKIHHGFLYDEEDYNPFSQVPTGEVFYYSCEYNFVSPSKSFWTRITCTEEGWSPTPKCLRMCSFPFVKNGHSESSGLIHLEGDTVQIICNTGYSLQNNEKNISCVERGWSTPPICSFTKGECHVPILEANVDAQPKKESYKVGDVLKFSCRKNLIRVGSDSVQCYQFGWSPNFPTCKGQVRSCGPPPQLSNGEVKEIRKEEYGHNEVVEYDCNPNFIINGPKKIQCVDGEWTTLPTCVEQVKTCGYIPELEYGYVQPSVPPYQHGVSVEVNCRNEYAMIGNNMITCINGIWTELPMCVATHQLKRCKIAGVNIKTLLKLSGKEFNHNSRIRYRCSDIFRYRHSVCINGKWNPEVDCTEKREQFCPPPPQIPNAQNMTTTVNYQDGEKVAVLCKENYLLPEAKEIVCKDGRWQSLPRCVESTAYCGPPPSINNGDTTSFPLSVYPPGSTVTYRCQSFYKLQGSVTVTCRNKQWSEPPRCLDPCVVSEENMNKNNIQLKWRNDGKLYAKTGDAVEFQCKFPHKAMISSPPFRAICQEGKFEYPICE

[2] = target: mouse complement C3 bound to the glomerular basement membrane (mouse) (UniProt P01027); test: glomerular immunofluorescence, Cfh-/- mice
[3] = target: mouse complement C3 bound to the glomerular basement membrane (mouse) (UniProt P01027); test: glomerular CFHR5 staining in vivo (30, 15, 7.5 and 3.8 µg doses) and ex vivo on kidney sections
[4] = target: mouse complement C3 bound to the glomerular basement membrane (mouse) (UniProt P01027); test: glomerular immunofluorescence, repeat with a separate protein batch
[5] = target: T1, CFHR5 (complement factor H-related …); test: serum immunoprecipitation with anti-CFHR5, western blot with MBC125; details: remark: other sources report otherwise

B1: CFHR2 (complement factor H-related protein 2), native in serum, P36980 19-270 (protein)
chain: EAMFCDFPKINHGILYDEEKYKPFSQVPTGEVFYYSCEYNFVSPSKSFWTRITCAEEGWSPTPKCLRLCFFPFVENGHSESSGQTHLEGDTVQIICNTGYRLQNNENNISCVERGWSTPPKCRSTISAEKCGPPPPIDNGDITSFLLSVYAPGSSVEYQCQNLYQLEGNNQITCRNGQWSEPPKCLDPCVISQEIMEKYNIKLKWTNQQKLYSRTGDIVEFVCKSGYHPTKSHSFRAMCQNGKLVYPSCEEK
- binding [1]: binds

B2: CFHR5 (complement factor H-related protein 5), wild type (protein)
chain: EGTLCDFPKIHHGFLYDEEDYNPFSQVPTGEVFYYSCEYNFVSPSKSFWTRITCTEEGWSPTPKCLRMCSFPFVKNGHSESSGLIHLEGDTVQIICNTGYSLQNNEKNISCVERGWSTPPICSFTKGECHVPILEANVDAQPKKESYKVGDVLKFSCRKNLIRVGSDSVQCYQFGWSPNFPTCKGQVRSCGPPPQLSNGEVKEIRKEEYGHNEVVEYDCNPNFIINGPKKIQCVDGEWTTLPTCVEQVKTCGYIPELEYGYVQPSVPPYQHGVSVEVNCRNEYAMIGNNMITCINGIWTELPMCVATHQLKRCKIAGVNIKTLLKLSGKEFNHNSRIRYRCSDIFRYRHSVCINGKWNPEVDCTEKREQFCPPPPQIPNAQNMTTTVNYQDGEKVAVLCKENYLLPEAKEIVCKDGRWQSLPRCVESTAYCGPPPSINNGDTTSFPLSVYPPGSTVTYRCQSFYKLQGSVTVTCRNKQWSEPPRCLDPCVVSEENMNKNNIQLKWRNDGKLYAKTGDAVEFQCKFPHKAMISSPPFRAICQEGKFEYPICE
- binding [2]: binds
- binding [3]: binds

B3: CFHR5 dimer mutant (Tyr34Ser, Ser36Tyr, Tyr39Glu) (protein)
chain: EGTLCDFPKIHHGFLYDEEDYNPFSQVPTGEVFSYYCEENFVSPSKSFWTRITCTEEGWSPTPKCLRMCSFPFVKNGHSESSGLIHLEGDTVQIICNTGYSLQNNEKNISCVERGWSTPPICSFTKGECHVPILEANVDAQPKKESYKVGDVLKFSCRKNLIRVGSDSVQCYQFGWSPNFPTCKGQVRSCGPPPQLSNGEVKEIRKEEYGHNEVVEYDCNPNFIINGPKKIQCVDGEWTTLPTCVEQVKTCGYIPELEYGYVQPSVPPYQHGVSVEVNCRNEYAMIGNNMITCINGIWTELPMCVATHQLKRCKIAGVNIKTLLKLSGKEFNHNSRIRYRCSDIFRYRHSVCINGKWNPEVDCTEKREQFCPPPPQIPNAQNMTTTVNYQDGEKVAVLCKENYLLPEAKEIVCKDGRWQSLPRCVESTAYCGPPPSINNGDTTSFPLSVYPPGSTVTYRCQSFYKLQGSVTVTCRNKQWSEPPRCLDPCVVSEENMNKNNIQLKWRNDGKLYAKTGDAVEFQCKFPHKAMISSPPFRAICQEGKFEYPICE
- binding [2]: binds
- binding [4]: binds

B4: CFHR1 (complement factor H-related protein 1), purified from serum, Q03591 19-330 (protein)
chain: EATFCDFPKINHGILYDEEKYKPFSQVPTGEVFYYSCEYNFVSPSKSFWTRITCTEEGWSPTPKCLRLCFFPFVENGHSESSGQTHLEGDTVQIICNTGYRLQNNENNISCVERGWSTPPKCRSTDTSCVNPPTVQNAHILSRQMSKYPSGERVRYECRSPYEMFGDEEVMCLNGNWTEPPQCKDSTGKCGPPPPIDNGDITSFPLSVYAPASSVEYQCQNLYQLEGNKRITCRNGQWSEPPKCLHPCVISREIMENYNIALRWTAKQKLYLRTGESAEFVCKRGYRLSSRSHTLRTTCWDGKLEYPTCAKR
- binding [5]: binds
